PubChem BioAssay AID1259405, NCATS – 2018
This is a random part of about 50,000 reagents. Of all reagents, about 4,000 (8%) were called active. 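Mouse siRNA library applied to hamster cells; one well for each siRNA.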 A number with no mark means an inactive call. The numbers tell different reagents against one gene apart.

Aim: 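Mouse-designed siRNAs used to find CHO productivity engineering targets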 (primary screen)
Cell system: Chinese hamster CHO-K1 ovary cells with stable secreted eGFP expression
Knock-down reagent: single siRNA against mouse genes, 0.8 pmol siRNA per well (2 µl of 400 nM stock)
Time to read-out: 3 days
Measurement: 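Percent of the per-plate non-targeting control median for intracellular GFP per well by laser scanning cytometry and for cell viability by ATP luminescence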
Scale: GFP, % of control: higher = more GFP per well, higher productivity; viability (ATP), % of control: higher = more viable cells (more ATP)
Rule for the call: 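a knock-down is called active if GFP reaches 120% or more of non-targeting control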

no.	gene knocked down	siRNA no.	GFP, % of control	viability (ATP), % of control
1	Tdg	1	107	46.5
2	Tdg	2	76.6	86.9
3	Tdg	3	86.6	67.1
4	Mtrr	1	90.5	98.8
5	Mtrr	2	50.8	77.7
6	Mtrr	3	45.3	54.1
7	Or5af2	1	64.5	63.9
8	Or5af2	2	107	75.3
9	Or5af2	3	107	64.3
10	Actc1	1	104	107
11	Actc1	2	59.4	70.4
12	Slc4a4	1	123 (active)	92
13	Slc4a4	2	160 (active)	79.9
14	Slc4a4	3	73.3	93.4
15	Aadac	1	79.6	75.7
16	Aadac	2	81.2	74.8
17	Aadac	3	29.7	55.1
18	Plpbp	1	65.6	79.7
19	Plpbp	2	85.2	80.9
20	Ints5	1	80	76.6
21	Ints5	2	97	68.6
22	Ints5	3	55.3	64.8
23	Tnk2	1	110	44.2
24	Tnk2	2	69.4	93.6
25	Tnk2	3	86.4	83.4
26	Zfyve16	1	110	118
27	Zfyve16	2	67.6	75.3
28	Pfkm	1	59.5	66.1
29	Best3	1	77	86.9
30	Best3	2	131 (active)	77.1
31	Best3	3	80.8	78.2
32	Chrnb4	1	30.1	32.2
33	Chrnb4	2	76.3	52.6
34	Chrnb4	3	59.3	59.9
35	Or4g17	1	56	52.1
36	Or4g17	2	129 (active)	68.3
37	Or4g17	3	88.9	95.3
38	2610318N02Rik	1	27.2	26.6
39	2610318N02Rik	2	69.5	60.3
40	2610318N02Rik	3	78.3	71.9
41	Arl10	1	103	86.5
42	Arl10	2	126 (active)	82
43	Arl10	3	64.1	64.6
44	Gdf7	1	63.5	64.8
45	Gdf7	2	60.3	29.9
46	Gdf7	3	72.6	82.5
47	Supt16	1	45.4	36.5
48	Supt16	2	79.8	69.4
49	Actrt3	1	95.7	93.9
50	Actrt3	2	96.3	106
51	Or5ac20	1	45.8	60.7
52	Or5ac20	2	76.7	81.7
53	Or5ac20	3	41.3	85.6
54	Hip1	1	68.1	70
55	Hip1	2	64.2	66.2
56	Hip1	3	79.7	78.4
57	Klf17	1	86	76.1
58	Klf17	2	75.7	65.1
59	Klf17	3	80.8	92.7
60	Lrpap1	1	57.5	71.5
61	Lrpap1	2	84.3	61.2
62	Lrpap1	3	145 (active)	50.2
63	Or4d10b	1	101	92.7
64	Or4d10b	2	96.2	97
65	Or4d10b	3	51.4	102
66	Metap1	1	109	80
67	Metap1	2	94.1	89.8
68	Metap1	3	70.6	84.6
69	Stard4	1	148 (active)	93.1
70	Stard4	2	97.3	71.1
71	Stard4	3	102	106
72	Pde7b	1	62.5	58.9
73	Pde7b	2	85	64.5
74	Pde7b	3	121 (active)	109
75	Tshb	1	56.8	54.8
76	Tshb	2	59.6	70.6
77	Tshb	3	62.6	68
78	Ovgp1	1	50.8	54.1
79	Ovgp1	2	70.1	76.9
80	Ovgp1	3	92.6	95.3
81	Rmnd1	1	86.6	83.2
82	Rmnd1	2	112	104
83	Rmnd1	3	148 (active)	92
84	Psme1	1	60.6	55.3
85	Psme1	2	74.8	60.5
86	Psme1	3	108	72

Entries listed so far whose target name starts with S or s (8):
gene knocked down	siRNA no.	GFP, % of control	viability (ATP), % of control
Slc4a4	1	123 (active)	92
Slc4a4	2	160 (active)	79.9
Slc4a4	3	73.3	93.4
Supt16	1	45.4	36.5
Supt16	2	79.8	69.4
Stard4	1	148 (active)	93.1
Stard4	2	97.3	71.1
Stard4	3	102	106
